Experimental findings from PMC6134322 are described below.

Protein sequences, listed by entry. Tags and fused reporters are not part of them.
UniProt P11530: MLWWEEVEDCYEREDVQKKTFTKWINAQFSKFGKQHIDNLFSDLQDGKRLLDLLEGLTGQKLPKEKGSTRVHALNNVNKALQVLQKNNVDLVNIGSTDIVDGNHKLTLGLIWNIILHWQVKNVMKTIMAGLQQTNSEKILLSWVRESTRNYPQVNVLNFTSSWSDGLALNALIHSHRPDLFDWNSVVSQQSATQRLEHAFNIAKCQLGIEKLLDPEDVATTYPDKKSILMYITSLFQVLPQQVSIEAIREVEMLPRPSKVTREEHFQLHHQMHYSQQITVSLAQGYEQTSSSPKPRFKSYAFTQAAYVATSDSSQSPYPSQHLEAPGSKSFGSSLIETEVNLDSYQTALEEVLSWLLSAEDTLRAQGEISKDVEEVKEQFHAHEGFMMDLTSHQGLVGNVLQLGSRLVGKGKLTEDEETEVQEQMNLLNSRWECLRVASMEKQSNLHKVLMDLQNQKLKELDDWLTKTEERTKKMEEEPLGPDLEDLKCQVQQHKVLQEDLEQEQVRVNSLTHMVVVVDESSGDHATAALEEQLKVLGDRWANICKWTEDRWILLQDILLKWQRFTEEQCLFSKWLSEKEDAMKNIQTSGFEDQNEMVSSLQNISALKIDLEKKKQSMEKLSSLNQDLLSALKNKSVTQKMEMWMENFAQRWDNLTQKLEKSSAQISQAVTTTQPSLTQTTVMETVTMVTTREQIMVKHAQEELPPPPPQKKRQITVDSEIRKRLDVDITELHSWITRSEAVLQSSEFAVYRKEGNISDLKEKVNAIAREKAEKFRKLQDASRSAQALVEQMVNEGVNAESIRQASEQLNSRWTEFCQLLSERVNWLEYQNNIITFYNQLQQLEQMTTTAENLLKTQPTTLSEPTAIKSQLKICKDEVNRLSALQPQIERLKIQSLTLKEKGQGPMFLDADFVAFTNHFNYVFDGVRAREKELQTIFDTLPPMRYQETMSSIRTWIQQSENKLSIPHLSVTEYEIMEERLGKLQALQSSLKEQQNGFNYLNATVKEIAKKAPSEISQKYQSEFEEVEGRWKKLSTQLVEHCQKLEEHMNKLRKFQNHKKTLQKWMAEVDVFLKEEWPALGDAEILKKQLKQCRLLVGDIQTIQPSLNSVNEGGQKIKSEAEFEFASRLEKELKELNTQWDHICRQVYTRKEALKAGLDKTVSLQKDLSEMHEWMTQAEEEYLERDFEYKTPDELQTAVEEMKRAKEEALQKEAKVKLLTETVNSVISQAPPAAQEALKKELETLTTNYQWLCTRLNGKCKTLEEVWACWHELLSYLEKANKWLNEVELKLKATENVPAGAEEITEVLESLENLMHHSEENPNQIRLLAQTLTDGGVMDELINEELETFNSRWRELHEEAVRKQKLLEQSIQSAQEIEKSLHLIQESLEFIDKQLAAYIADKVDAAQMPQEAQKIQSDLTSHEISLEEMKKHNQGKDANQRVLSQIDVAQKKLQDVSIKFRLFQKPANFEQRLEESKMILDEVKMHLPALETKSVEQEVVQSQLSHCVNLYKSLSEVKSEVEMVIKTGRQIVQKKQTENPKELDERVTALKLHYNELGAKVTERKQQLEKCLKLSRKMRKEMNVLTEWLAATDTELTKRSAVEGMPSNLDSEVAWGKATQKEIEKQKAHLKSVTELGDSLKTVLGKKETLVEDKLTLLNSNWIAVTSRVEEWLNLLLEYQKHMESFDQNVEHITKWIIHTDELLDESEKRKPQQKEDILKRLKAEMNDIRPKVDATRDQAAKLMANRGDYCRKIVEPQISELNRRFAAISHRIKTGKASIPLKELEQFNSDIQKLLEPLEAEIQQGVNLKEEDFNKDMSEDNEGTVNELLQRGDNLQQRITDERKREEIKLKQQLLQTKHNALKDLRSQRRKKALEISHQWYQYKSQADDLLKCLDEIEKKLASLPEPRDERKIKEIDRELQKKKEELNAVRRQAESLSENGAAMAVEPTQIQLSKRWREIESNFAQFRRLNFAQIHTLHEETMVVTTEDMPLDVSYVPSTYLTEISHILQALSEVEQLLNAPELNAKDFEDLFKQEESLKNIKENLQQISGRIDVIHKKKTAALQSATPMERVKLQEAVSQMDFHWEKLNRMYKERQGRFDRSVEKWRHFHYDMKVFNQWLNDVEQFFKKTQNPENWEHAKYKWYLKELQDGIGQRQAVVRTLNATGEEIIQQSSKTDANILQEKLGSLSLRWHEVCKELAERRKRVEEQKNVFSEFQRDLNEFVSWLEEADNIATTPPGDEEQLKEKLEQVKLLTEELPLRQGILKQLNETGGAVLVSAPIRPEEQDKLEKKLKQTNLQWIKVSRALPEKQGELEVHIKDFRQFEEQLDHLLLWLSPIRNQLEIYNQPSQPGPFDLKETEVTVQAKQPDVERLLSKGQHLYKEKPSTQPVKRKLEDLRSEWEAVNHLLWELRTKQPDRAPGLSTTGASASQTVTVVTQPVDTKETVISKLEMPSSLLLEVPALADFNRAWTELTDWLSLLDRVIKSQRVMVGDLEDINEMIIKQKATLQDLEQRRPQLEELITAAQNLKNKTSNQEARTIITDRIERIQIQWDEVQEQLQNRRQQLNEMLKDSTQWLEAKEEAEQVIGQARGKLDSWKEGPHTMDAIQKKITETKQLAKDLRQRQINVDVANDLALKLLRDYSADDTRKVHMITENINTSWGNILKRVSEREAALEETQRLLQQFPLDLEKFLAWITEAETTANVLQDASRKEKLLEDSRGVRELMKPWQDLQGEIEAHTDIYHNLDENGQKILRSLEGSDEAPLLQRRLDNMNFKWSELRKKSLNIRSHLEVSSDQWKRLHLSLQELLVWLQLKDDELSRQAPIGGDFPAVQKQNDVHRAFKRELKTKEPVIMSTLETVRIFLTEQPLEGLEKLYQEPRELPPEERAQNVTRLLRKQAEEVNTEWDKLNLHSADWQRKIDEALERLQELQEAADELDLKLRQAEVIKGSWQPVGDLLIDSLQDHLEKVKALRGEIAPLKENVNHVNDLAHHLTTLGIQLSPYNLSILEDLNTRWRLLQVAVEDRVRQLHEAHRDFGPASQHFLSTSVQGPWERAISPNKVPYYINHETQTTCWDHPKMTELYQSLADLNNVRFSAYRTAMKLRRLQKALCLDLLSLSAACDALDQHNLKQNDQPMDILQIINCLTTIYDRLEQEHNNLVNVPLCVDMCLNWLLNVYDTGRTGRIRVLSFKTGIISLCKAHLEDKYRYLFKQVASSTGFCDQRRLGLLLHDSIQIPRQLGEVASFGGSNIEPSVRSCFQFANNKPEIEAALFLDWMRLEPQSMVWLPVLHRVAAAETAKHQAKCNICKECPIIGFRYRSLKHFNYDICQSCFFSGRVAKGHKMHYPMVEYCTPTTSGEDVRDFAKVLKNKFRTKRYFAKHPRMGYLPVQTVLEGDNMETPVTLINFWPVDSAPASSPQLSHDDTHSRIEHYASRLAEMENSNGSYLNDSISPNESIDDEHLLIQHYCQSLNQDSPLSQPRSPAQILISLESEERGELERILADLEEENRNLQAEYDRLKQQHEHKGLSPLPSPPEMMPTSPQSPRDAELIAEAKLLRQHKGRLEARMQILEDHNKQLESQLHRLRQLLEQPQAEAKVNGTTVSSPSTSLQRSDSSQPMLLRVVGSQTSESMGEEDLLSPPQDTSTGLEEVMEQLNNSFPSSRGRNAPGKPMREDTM
UniProt O70511: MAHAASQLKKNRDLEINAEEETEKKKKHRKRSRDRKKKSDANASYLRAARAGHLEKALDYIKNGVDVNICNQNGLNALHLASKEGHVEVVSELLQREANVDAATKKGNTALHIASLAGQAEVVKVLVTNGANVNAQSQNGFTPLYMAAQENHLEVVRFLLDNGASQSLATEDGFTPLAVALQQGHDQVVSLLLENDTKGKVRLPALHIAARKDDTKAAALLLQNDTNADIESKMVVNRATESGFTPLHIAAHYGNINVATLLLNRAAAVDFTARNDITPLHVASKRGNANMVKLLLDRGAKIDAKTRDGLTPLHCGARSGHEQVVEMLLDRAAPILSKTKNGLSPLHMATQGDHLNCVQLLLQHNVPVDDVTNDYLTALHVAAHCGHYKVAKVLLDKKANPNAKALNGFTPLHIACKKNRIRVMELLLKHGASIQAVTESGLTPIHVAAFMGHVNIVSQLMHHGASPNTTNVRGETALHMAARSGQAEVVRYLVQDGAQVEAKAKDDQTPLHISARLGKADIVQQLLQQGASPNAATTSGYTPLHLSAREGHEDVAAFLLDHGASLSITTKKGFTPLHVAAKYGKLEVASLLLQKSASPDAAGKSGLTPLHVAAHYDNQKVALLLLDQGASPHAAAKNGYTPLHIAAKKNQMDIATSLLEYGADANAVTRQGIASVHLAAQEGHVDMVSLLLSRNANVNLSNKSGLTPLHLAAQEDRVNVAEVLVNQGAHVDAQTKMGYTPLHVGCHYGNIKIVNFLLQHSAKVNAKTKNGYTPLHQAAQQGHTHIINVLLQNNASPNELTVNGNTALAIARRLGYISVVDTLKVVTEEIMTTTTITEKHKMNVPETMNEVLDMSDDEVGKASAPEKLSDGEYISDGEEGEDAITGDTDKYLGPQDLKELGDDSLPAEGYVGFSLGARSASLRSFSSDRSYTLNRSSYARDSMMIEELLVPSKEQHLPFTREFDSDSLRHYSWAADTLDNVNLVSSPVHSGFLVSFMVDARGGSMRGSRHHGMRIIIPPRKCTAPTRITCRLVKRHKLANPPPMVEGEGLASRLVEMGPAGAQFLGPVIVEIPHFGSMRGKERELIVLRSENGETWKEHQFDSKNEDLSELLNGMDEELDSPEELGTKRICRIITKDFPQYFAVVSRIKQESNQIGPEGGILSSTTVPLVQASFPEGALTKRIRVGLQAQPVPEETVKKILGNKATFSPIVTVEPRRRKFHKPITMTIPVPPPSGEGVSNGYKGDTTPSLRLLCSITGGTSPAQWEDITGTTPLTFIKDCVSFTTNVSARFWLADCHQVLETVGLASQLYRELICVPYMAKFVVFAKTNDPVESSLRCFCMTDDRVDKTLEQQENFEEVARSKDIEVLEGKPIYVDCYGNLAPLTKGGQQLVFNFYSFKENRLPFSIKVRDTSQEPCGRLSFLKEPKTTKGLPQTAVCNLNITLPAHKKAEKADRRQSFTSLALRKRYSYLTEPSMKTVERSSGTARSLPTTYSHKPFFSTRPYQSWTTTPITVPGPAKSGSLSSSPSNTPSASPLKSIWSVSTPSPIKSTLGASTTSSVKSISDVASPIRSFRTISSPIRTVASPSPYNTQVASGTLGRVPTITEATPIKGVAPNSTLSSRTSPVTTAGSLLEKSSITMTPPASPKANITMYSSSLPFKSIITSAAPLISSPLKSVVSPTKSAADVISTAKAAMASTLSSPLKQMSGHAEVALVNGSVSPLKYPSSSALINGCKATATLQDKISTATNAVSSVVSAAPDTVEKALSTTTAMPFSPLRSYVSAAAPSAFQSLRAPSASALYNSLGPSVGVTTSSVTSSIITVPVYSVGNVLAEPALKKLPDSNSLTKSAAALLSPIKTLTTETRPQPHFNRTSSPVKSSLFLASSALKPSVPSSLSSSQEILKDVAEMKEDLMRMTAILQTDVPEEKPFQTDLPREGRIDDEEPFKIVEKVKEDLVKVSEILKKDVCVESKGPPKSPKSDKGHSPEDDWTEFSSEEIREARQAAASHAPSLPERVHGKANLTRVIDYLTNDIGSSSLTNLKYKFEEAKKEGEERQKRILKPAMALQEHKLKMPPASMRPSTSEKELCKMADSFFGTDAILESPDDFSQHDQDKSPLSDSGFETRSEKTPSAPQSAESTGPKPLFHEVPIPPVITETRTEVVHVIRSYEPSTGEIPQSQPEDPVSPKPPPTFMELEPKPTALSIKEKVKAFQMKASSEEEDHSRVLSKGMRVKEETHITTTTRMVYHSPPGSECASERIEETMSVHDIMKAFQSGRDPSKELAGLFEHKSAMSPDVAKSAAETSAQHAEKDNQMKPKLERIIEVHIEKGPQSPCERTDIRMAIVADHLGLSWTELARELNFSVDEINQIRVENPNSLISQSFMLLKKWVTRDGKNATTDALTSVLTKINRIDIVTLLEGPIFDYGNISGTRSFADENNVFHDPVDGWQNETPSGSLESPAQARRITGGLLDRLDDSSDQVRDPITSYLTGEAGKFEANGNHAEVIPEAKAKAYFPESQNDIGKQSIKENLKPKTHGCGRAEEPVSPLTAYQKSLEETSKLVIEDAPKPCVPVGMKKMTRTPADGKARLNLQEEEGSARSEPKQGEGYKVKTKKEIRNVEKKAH

No constants are given. Whether binding was seen depends on the method and setting. In cells and extracts the contact can be indirect. Some binding calls cover weakened binding; strength is not graded here.

The target of assay [1] is dystrophin (rat (endogenous in neonatal rat ventricular myocytes)) (UniProt P11530). Kind of assay: co-IP; lysate (RIPA buffer) of neonatal rat ventricular myocytes after 24 h of incubation with amitriptyline (1.0 μM); precipitated with anti-ankyrin-G or anti-dystrophin antibody and protein A/G beads at 4°C, blotted with anti-Nav1.5.
Assay [2] addresses ankyrin-G (rat (endogenous in neonatal rat ventricular myocytes)) (UniProt O70511). Described as above.
In assay [3] the target is dystrophin (rat (endogenous in neonatal rat ventricular myocytes)) (UniProt P11530). Nature of the assay: co-IP; lysate (RIPA buffer) of neonatal rat ventricular myocytes without amitriptyline; precipitated with anti-ankyrin-G or anti-dystrophin antibody and protein A/G beads at 4°C, blotted with anti-Nav1.5.
Assay [4] deals with ankyrin-G (rat (endogenous in neonatal rat ventricular myocytes)) (UniProt O70511). The description is as above.

“Nav1.5 channel protein (from UniProt P15389 1-2019)”: the binding result is recorded as “binds weakly” in assay [1], “binds weakly” in assay [2], “binds” in assay [3] and “binds” in assay [4].
